Test results from patent publication US10947260B2, “Phosphinolactone derivatives and pharmaceutical uses thereof” (INSTITUT NATIONAL DE LA SANTE ET DE LA RECHERCHE MEDICALE …, priority 2016, dated 2021).
For at least one compound, name, drawing or mass did not settle the structure.

Assays:
[1] = test system: mice treated with peptide Aβ25-35; experiment: In vivo screening of derivatives as neuroprotectors (spontaneous alternation, passive avoidance, ROS level), Aβ25-35 model
Procedure: FIG. 7: Screening of phosphinolactones as neuroprotectors in mice treated with peptide Aβ25-35: (a) spontaneous alternation; (b) passive avoidance step-through latency; (c) Levels of reactive oxygen species in hippocampus. The mice were given compound 3b (0.3, 0.7 mg/kg IP) or a dose of each compound (0.3 mg/kg IP) 20 min before I′Aβ25-35 or the control peptide Sc.Aβ (9 nmol ICV). The animals were tested in the Y-maze on Day 7 after the ICV injections and for passive avoidance on Days 8-9, and then sacrificed. In each graph at (a-c), the 50% protection level compared with the deficit induced by Aβ25-35 is plotted as a dotted line. […] The values of the groups 5-12 (screened compounds) were analysed by t-test at (a, c) or Mann-Whitney at (b).
From the molecules derived from the synthesis, a panel of 8 derivatives was selected and screened for potential neuroprotective efficacy. […] The compounds were injected […] before the Aß25-35 peptide, and the mice were tested for spontaneous alternation on Day 7, passive avoidance on Days 8 and 9 and the ROS level was measured in the hippocampus (FIG. 7). For each response (spontaneous alternation: FIG. 7a; step-through latency in passive avoidance: FIG. 7b, and DCF fluorescence level: FIG. 7c), a 50% level of the effect between the values of the ScAß and Aß25-35 animals was taken as criterion of efficacy. […]

APPSwe mice = experiment: Spontaneous alternation in Y-maze, transgenic APPSwe mice, chronic treatment; type: in vivo
Procedure: FIG. 8: Spontaneous alternation (a, b) and total number of arm entries (c, d) of APPSwe mice given compound 3b, in the Y-maze, after treatment of one month (a, c) and 2 months (b, d). The animals were given compound 3b (0.7 or 2 mg/kg IP) 3 times per week for 1 or 2 months. N=6-15 per group. ANOVA: F(5.49)=3.84, p<0.01 at (a); F(5.54)=1.54, p>0.05 at (b); F<1 at (c) et (d). *p<0.05, **p<0.01 compared with group (WT+V); #p<0.05 compared with group (APPSwe+V); Dunnett test at (a, b).
FIG. 10: Spontaneous alternation (a, b) and number of arm entries (c, d) for APPSwe mice treated with compound 3c, in the Y-maze, after treatment for 1 month (a, c) or 2 months (b, d). The animals were given compound 3c (1 mg/kg IP) 3 times per week for 1 or 2 months. N=10-13 per group. ANOVA: F(3.45)=3.61, p<0.05 at (a); F(3.38)=6.33, p<0.01 at (b); F<1 at (c) and (d). *p<0.05, ***p<0.001 compared with group WT/V; #p<0.05 compared with group APPSwe/V; Dunnett test at (a, b).
The animals were tested for spontaneous alternation performance in a Y-maze, an index of spatial working memory. The Y-maze was in grey PVC. Each arm was 40 cm long, 13 cm high, 3 cm wide at the base and 10 cm wide in the upper part, and converging at an equal angle. Each mouse was placed at one end of an arm and was able to move freely through the maze during an 8-min session. The series of arm entries, including any returns in the same arm were visually analysed. Alternation is defined as being consecutive entries in three different arms. The maximum number of alternations is therefore the total number of arm entries less two, and alternation percentage is calculated as (actual alternations/maximum possible alternations)×100. The parameters comprise the alternation percentage (memory index) and the total number of arm entries (exploratory index). […]

CC1(C)COP(=O)(c2cccc(Cl)c2)C(C)(C)N1 (racemic) [Compound 3b, (±)-2-(3-Chlorophenyl)-2-oxo-3,3,5,5-tetramethyl-[1,4,2]-oxazaphosphinane]
criterion of efficacy: 50% level of the effect between ScAβ and Aβ25-35 animals (spontaneous alternation, step-through latency, DCF fluorescence) ([1]; 0.3 mg/kg IP): not | criterion of efficacy: 50% level of the effect between ScAβ and Aβ25-35 animals ([1]; 0.7 mg/kg IP): allowed this criterion to be met | alternation deficit of APPSwe mice (APPSwe mice; 0.7 mg/kg/d, 1 month): not | alternation deficit of APPSwe mice (APPSwe mice; 2 mg/kg/d, 1 month): significantly prevents alternation deficit | alternation deficit of APPSwe mice (APPSwe mice; the two doses 0.7 and 2 mg/kg/d, 2 months): attenuate the deficit
